{"source": "paper PMC12040169", "about": "(PLOS Biology, 2025)", "note": "Some of the results follow."}
{"tested_on": "T1, CTL2-GFP (C. trachomatis L2/434/Bu, GFP-expressing)", "T1 construct": "L2/434/Bu, GFP-expressing", "design": "species or system HeLa; Intracellular C. trachomatis growth in HeLa cells, bulk GFP fluorescence relative to DMSO", "conditions": "bulk GFP, single well; 28.5 h, 10 µM; inhibitor", "units": {"% of control remaining": "%"}}
{"smiles": "CNc1ccc2cccc(OCCO)c2n1", "note": "[CBK149727]", "% of control remaining": 126.447}
{"smiles": "COCc1cc(=O)[nH]c(N2CCN(Cc3ccccc3)CC2)n1", "note": "[CBK270253]", "% of control remaining": 150.317}
{"smiles": "S=C(Nc1ccccc1)NC1C2CN3CCN(C2)CC1(c1ccccc1)C3", "note": "(stereo not shown) [CBK261936]", "% of control remaining": 111.242}
{"smiles": "O=C(NCC(=O)N1CCCC1c1cccs1)c1cccc(Br)c1", "note": "(stereo not shown) [CBK305655]", "% of control remaining": 71.2547}
{"smiles": "Cc1cc(C)c2nc(-n3cncn3)c(C)cc2c1", "note": "[CBK025958]", "% of control remaining": 177.292}
{"smiles": "CCOc1ccc2nc(NC(=O)CC)sc2c1", "note": "[CBK287295]", "% of control remaining": 71.9824}
{"smiles": "Cc1cccc(OCCCC(=O)Nc2ccc(S(N)(=O)=O)cc2)c1C", "note": "[CBK267963]", "% of control remaining": 127.953}
{"smiles": "O=C(N[C@H]1C[C@H]2C(=O)NC[C@@H](CCC(=O)N3CCCCC3)N2C1)c1cccc(F)c1", "note": "[CBK289011]", "% of control remaining": 121.74}
{"smiles": "O=C(O)c1cn(C2CC2)c2cc(N3CCN(C(=S)Nc4ccc5c(c4)OCCO5)CC3)c(F)cc2c1=O", "note": "[CBK268916]", "% of control remaining": 121.691}
{"smiles": "O=C(O)CCC(=O)Nc1ccc(Br)cc1C(=O)c1ccccc1", "note": "[CBK262610]", "% of control remaining": 95.598}
{"smiles": "Oc1cccc(-c2nccnc2N2CCN(c3ccncc3)CC2)c1", "note": "[CBK037079]", "% of control remaining": 149.138}
{"smiles": "CC(=O)Nc1ccc(/C=N/NC(=O)CN2CCCCCCC2)cc1", "note": "[CBK261617]", "% of control remaining": 126.579}
{"smiles": "Cc1cc(=O)[nH]c(SCc2cc(=O)c3ccccc3[nH]2)n1", "note": "[CBK294410]", "% of control remaining": 157.378}
{"smiles": "O=C(O)CCC(=O)N1CCC(Cn2cncn2)(C2CCCCC2)CC1", "note": "[CBK136809]", "% of control remaining": 105.494}
{"smiles": "Cc1ccc2cc(CNc3ccc4[nH]ncc4c3)c(=O)[nH]c2c1", "note": "[CBK281935]", "% of control remaining": 123.1}
{"smiles": "CN(C)CC(=O)N1c2ccccc2CCc2ccc(NC(=O)c3ccc([N+](=O)[O-])cc3)cc21", "note": "[CBK278207C]", "% of control remaining": 103.003}
{"smiles": "CCOC(=O)NC(=O)C(C#N)/C=N/NC(=O)CCCNc1ncc(C(F)(F)F)cc1Cl", "note": "(stereo not shown) [CBK008354]", "% of control remaining": 92.2715}
{"smiles": "CN1CCN(C(=O)C2CCN(CCCc3ccccc3)CC2)CC1", "note": "[CBK264326G]", "% of control remaining": 145.164}
{"smiles": "CCCS(=O)(=O)NC[C@H]1C[C@@H]2CCN1C[C@@H]2c1cc(-c2cccs2)nn1C", "note": "[CBK289101]", "% of control remaining": 114.128}
{"smiles": "CC(Nc1ccc(N2CCOCC2)cc1)C(=O)Nc1cccc(C#N)c1", "note": "(stereo not shown) [CBK305846]", "% of control remaining": 114.067}
{"smiles": "NC(=O)c1ccccc1NC(=O)CSc1nc(N)cc(N)n1", "note": "[CBK267983]", "% of control remaining": 100.365}
{"smiles": "CC(C)[C@H]1N=C2C=C(C(C)(C)C)ON2[C@H]2[C@H](O)[C@H](O)C[C@H]21", "note": "[CBK303234]", "% of control remaining": 156.995}
